The data set is described as follows: general procedure: solution-phase peptide synthesis; T3P; HATU; BEP (with diisopropylethylamine). The note with it: for crude LC-MS purity: LC/MS peak area %; for crude yield: whole synthesis.

These results are taken from US20230056969 (published 2023).

Square brackets hold non-standard residues; d marks the D form. Ends that are not written are not given here. * marks the point of attachment. NMeF = CN[C@@H](Cc1ccccc1)C(=O)O; NMeA = CN[C@@H](C)C(=O)O; Aze = O=C(O)[C@@H]1CCN1; Cbz = O=C(OCc1ccccc1)*; OtBu = CC(C)(C)O*; Sar = CNCC(=O)O

As to [NMeA][Aze][NMeF][Sar]-OtBu, where the note is “late stage modification step”, the step yield result is listed as “yield 97%” and the “crude LC-MS purity” value is 99.7 area %.
Regarding “Cbz-MePhe-Leu-MeLeu-Val-MeGly-MeIle-Ser(tBu)-MePhe-MeVal-Asp(tBu)-piperidine (SEQ ID NO: 12)”, for the setting “coupling step”, the step yield entry is “yield 99%” and the “crude LC-MS purity” value is 97.0 area %.
In the case of “Cbz-MeAla-MePhe-Leu-MeLeu-Val-MeGly-MeIle-Ser(tBu)-MePhe-MeVal-Asp(tBu)-piperidine”, for the setting “coupling step”, the step yield result is recorded as “yield 96%” and the “crude LC-MS purity” value is on record as 95.3 area %. Also, the crude yield entry (total from the initial amino acid) is recorded as “total 75.3%”.
Turning to “Cbz-Leu-MeLeu-Val-MeGly-MeIle-Ser(tBu)-MePhe-MeVal-Asp(tBu)-piperidine”, under “coupling step”, the step yield result is on record as “yield 98%” and the “crude LC-MS purity” value was determined as 97.2 area %.
With Cbz-[NMeA][Aze][NMeF][Sar]-OtBu, under “coupling step”, the step yield entry is reported as “yield 91%” and the “crude LC-MS purity” value was 99.5 area %.
Taken in the same sequence, the figures for “Cbz-MeLeu-Val-MeGly-MeIle-Ser(tBu)-MePhe-MeVal-Asp(tBu)-piperidine” were “yield 98%” and 96.0 area %.
Turning to Cbz-I[NMeA][Aze][NMeF][Sar]-OtBu, the “crude LC-MS purity” value (coupling step) stood at 99.1 area %. The crude yield result (from the initial amino acid) is listed as “total 87%”.
Regarding “Val-MeGly-MeIle-Ser(tBu)-MePhe-MeVal-Asp(tBu)-piperidine”, where the note is “late stage modification step”, the step yield entry is listed as “yield 98%” and the “crude LC-MS purity” value came to 97.9 area %.
